These results are taken from article PMC10989996.

Protein sequences, listed by entry. Tags and fused reporters are not part of them.
UniProt Q9D0L8: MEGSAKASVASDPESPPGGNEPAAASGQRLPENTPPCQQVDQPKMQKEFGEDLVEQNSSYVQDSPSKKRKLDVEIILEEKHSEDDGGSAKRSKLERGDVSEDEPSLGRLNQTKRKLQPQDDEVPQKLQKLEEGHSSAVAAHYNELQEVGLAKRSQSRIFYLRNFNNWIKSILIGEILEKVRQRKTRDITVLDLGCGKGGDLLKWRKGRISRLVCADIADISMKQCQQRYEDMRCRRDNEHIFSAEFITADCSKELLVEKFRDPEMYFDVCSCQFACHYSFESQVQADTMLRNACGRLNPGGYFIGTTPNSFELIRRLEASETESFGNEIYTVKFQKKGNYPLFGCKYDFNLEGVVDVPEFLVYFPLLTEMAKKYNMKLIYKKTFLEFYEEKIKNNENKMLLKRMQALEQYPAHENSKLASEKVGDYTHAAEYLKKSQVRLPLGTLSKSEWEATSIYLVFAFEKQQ
UniProt Q9CQY2: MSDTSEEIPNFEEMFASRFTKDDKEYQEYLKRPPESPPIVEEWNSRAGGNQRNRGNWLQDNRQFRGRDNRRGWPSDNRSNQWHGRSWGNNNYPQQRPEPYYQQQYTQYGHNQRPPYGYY

No constants are given. Whether binding was seen depends on the method and setting. Binding seen in cells or lysates may run through a third protein. Some entries that bind do so weakly or less than the wild type.

The target in the experiment is RNMT (RNA guanosine N-7 cap methyltransferase) (mouse (endogenous in mouse brain)) (UniProt Q9D0L8). Nature of the experiment: co-IP; RNMT immunoprecipitated from mouse brain lysate; RAM detected by Western blot; run as a marker for the migration of RAM. (In general: Immunoblotting shows a protein as a band on a membrane.)

Take “RAM (RNMT-Activating Mini protein/RAMAC/Fam103a1) (from UniProt Q9CQY2 1-119)”: the binding result is “binds”.
